Patent publication US9868722B2, “Monocyclic pyrimidine/pyridine compounds as inhibitors of P97 complex” (Cleave Biosciences, Inc., priority 2013, dated 2018)

Tested on: Caco-2 cell monolayers
Conditions: pH 7.4, range over 12 inter-day experiments

With `CC(C)NCC(O)COc1ccc(CC(N)=O)cc1` (centres unmarked) [Atenolol] the “Peff (×E-6 cm/sec) in pH 7.4 Caco-2, A B, Range” value (A to B) was 0.69-1.80 ×E-6 cm/sec and the “Peff (×E-6 cm/sec) in pH 7.4 Caco-2, B A, Range” value (B to A) was 1.69-2.68 ×E-6 cm/sec.
